# In the supplement of paper PMC8728848:
# This is one part of the list.
# Legend:
# Assay in all cases: glycan array binding signal (z-score within array); higher = stronger binding
# Conditions in all cases: glycan notation: IUPAC condensed, linker removed
# [1] = biological target: Gal(a1-3)Gal(b1-4)GlcNAc(b1-2)Man
# In short: (§1)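 The binding signal is a Z-score computed within each array and averaged over linkers. Arrays of the same protein sequence at different concentrations or buffers were also averaged together. Data originate from 3228 arrays in the Consortium for Functional Glycomics database, kept only where the protein sequence was available.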
# [2] = biological target: Gal(a1-3)Gal(b1-4)GlcNAc(b1-2)Man(a1-3)[Gal(a1-3)Gal(b1-4)GlcNAc(b1-2)Man(a1-6)]Man(b1-4)GlcNAc(b1-4)GlcNAc
# In short: as §1
# [3] = biological target: Gal(a1-3)Gal(b1-4)GlcNAc(b1-3)GalNAc
# In short: as §1
# [4] = biological target: Gal(a1-3)Gal(b1-4)GlcNAc(b1-6)GalNAc
# In short: as §1
# [5] = biological target: Gal(a1-3)Gal(b1-4)[Fuc(a1-3)]GlcNAc
# In short: as §1
# [6] = biological target: Gal(a1-3)Gal(b1-4)[Fuc(a1-3)]GlcNAc(b1-2)Man(a1-3)[Gal(a1-3)Gal(b1-4)[Fuc(a1-3)]GlcNAc(b1-2)Man(a1-6)]Man(b1-4)GlcNAc(b1-4)GlcNAc
# In short: as §1
# Gal(a1-3)GalNAc = biological target: Gal(a1-3)GalNAc
# In short: as §1
# [7] = biological target: Gal(a1-3)[Gal(a1-4)]Gal(b1-4)GlcNAc
# In short: as §1
# [8] = biological target: Gal(a1-4)Gal(b1-3)GlcNAc(b1-2)Man(a1-3)[Gal(a1-4)Gal(b1-3)GlcNAc(b1-2)Man(a1-6)]Man(b1-4)GlcNAc(b1-4)GlcNAc
# In short: as §1
# Gal(a1-4)Gal(b1-4)Glc = biological target: Gal(a1-4)Gal(b1-4)Glc
# In short: as §1
# Gal(a1-4)Gal(b1-4)GlcNAc = biological target: Gal(a1-4)Gal(b1-4)GlcNAc
# In short: as §1
# [9] = biological target: Gal(a1-4)Gal(b1-4)GlcNAc(b1-2)Man(a1-3)[Gal(a1-4)Gal(b1-4)GlcNAc(b1-2)Man(a1-6)]Man(b1-4)GlcNAc(b1-4)GlcNAc
# In short: as §1
# [10] = biological target: Gal(a1-4)Gal(b1-4)GlcNAc(b1-3)Gal(b1-4)Glc
# In short: as §1
# Gal(a1-4)GlcNAc = biological target: Gal(a1-4)GlcNAc
# In short: as §1
# Gal(a1-6)Glc = biological target: Gal(a1-6)Glc
# In short: as §1
# Gal(b1-2)Gal = biological target: Gal(b1-2)Gal
# In short: as §1
# Gal(b1-3)Gal = biological target: Gal(b1-3)Gal
# In short: as §1
# Gal(b1-3)Gal(b1-4)GlcNAc = biological target: Gal(b1-3)Gal(b1-4)GlcNAc
# In short: as §1
# Gal(b1-3)GalNAc = biological target: Gal(b1-3)GalNAc
# In short: as §1
# [11] = biological target: Gal(b1-3)GalNAc(a1-3)[Fuc(a1-2)]Gal(b1-4)Glc
# In short: as §1
# [12] = biological target: Gal(b1-3)GalNAc(a1-3)[Fuc(a1-2)]Gal(b1-4)GlcNAc
# In short: as §1
# Gal(b1-3)GalNAc(b1-3)Gal = biological target: Gal(b1-3)GalNAc(b1-3)Gal
# In short: as §1
# [13] = biological target: Gal(b1-3)GalNAc(b1-3)Gal(a1-4)Gal(b1-4)Glc
# In short: as §1
# [14] = biological target: Gal(b1-3)GalNAc(b1-4)Gal(b1-4)Glc
# In short: as §1
# [15] = biological target: Gal(b1-3)GalNAc(b1-4)[Neu5Ac(a2-3)]Gal(b1-4)Glc
# In short: as §1
# Gal(b1-3)GlcNAc = biological target: Gal(b1-3)GlcNAc
# In short: as §1
# [16] = biological target: Gal(b1-3)GlcNAc(a1-3)Gal(b1-4)GlcNAc
# In short: as §1
# [17] = biological target: Gal(b1-3)GlcNAc(a1-6)Gal(b1-4)GlcNAc
# In short: as §1
# Gal(b1-3)GlcNAc(b1-2)Man = biological target: Gal(b1-3)GlcNAc(b1-2)Man
# In short: as §1
# [18] = biological target: Gal(b1-3)GlcNAc(b1-2)Man(a1-3)[Gal(b1-3)GlcNAc(b1-2)Man(a1-6)]Man(b1-4)GlcNAc(b1-4)GlcNAc
# In short: as §1
# [19] = biological target: Gal(b1-3)GlcNAc(b1-2)Man(a1-3)[Gal(b1-3)GlcNAc(b1-2)Man(a1-6)]Man(b1-4)GlcNAc(b1-4)[Fuc(a1-6)]GlcNAc
# In short: as §1
# [20] = biological target: Gal(b1-3)GlcNAc(b1-2)Man(a1-3)[GlcNAc(b1-4)][Gal(b1-3)GlcNAc(b1-2)Man(a1-6)]Man(b1-4)GlcNAc(b1-4)GlcNAc
# In short: as §1
# [21] = biological target: Gal(b1-3)GlcNAc(b1-2)[Gal(b1-3)GlcNAc(b1-6)]Man(a1-6)[Gal(b1-3)GlcNAc(b1-2)Man(a1-3)]Man(b1-4)GlcNAc(b1-4)GlcNAc
# In short: as §1
# [22] = biological target: Gal(b1-3)GlcNAc(b1-3)Gal(b1-3)GlcNAc
# In short: as §1
# [23] = biological target: Gal(b1-3)GlcNAc(b1-3)Gal(b1-4)Glc
# In short: as §1
# [24] = biological target: Gal(b1-3)GlcNAc(b1-3)Gal(b1-4)GlcNAc
# In short: as §1
# [25] = biological target: Gal(b1-3)GlcNAc(b1-3)Gal(b1-4)GlcNAc(b1-2)Man(a1-3)[Gal(b1-3)GlcNAc(b1-3)Gal(b1-4)GlcNAc(b1-2)Man(a1-6)]Man(b1-4)GlcNAc(b1-4)GlcNAc
# In short: as §1
binder,measurement,setting,value
ArathEULS3 TAP (Arabidopsis thaliana) (protein) IDENLYFQGGSMDEKTTGWRGGHVVEGLAGELEQLRARLEHHPQGQREPGGGGSLEITSLYKKAGFMEHHHQHHRHHQRDDGEDDRQSFGVPPPHVDAPPQPHGLYQSQPHFDPYAPTPQAPAPYRSETQFEPHAPPPYRSEPYFETPAPPPSFGHVSHVGHQSPNESYPPEHHRYGGYQQPSNSLLESHGDHSGVTHVAHHSSNQPQSSSGVYHKPDENRLPDNLAGLAGRATVKVYSKAEPNYNLTIRDGKVILAPADPSDEAQHWYKDEKYSTKVKDADGHPCFALVNKATGEAMKHSVGATHPVHLIRYVPDKLDESVLWTESKDFGDGYRTIRMVNNTRLNVDAYHGDSKSGGVRDGTTIVLWDWNKGDNQLWKIFPF,glycan array binding signal (z-score),[1],-0.475
same,glycan array binding signal (z-score),[2],0.075
same,glycan array binding signal (z-score),[3],0.809
same,glycan array binding signal (z-score),[4],0.057
same,glycan array binding signal (z-score),[5],-0.089
same,glycan array binding signal (z-score),[6],1.14
same,glycan array binding signal (z-score),Gal(a1-3)GalNAc,-0.474
same,glycan array binding signal (z-score),[7],2.15
same,glycan array binding signal (z-score),[8],-1.05
same,glycan array binding signal (z-score),Gal(a1-4)Gal(b1-4)Glc,-0.92
same,glycan array binding signal (z-score),Gal(a1-4)Gal(b1-4)GlcNAc,0.331
same,glycan array binding signal (z-score),[9],0.15
same,glycan array binding signal (z-score),[10],0.556
same,glycan array binding signal (z-score),Gal(a1-4)GlcNAc,-0.544
same,glycan array binding signal (z-score),Gal(a1-6)Glc,-1.74
same,glycan array binding signal (z-score),Gal(b1-2)Gal,0.438
same,glycan array binding signal (z-score),Gal(b1-3)Gal,-0.16
same,glycan array binding signal (z-score),Gal(b1-3)Gal(b1-4)GlcNAc,-0.374
same,glycan array binding signal (z-score),Gal(b1-3)GalNAc,-0.703
same,glycan array binding signal (z-score),[11],1.46
same,glycan array binding signal (z-score),[12],-0.662
same,glycan array binding signal (z-score),Gal(b1-3)GalNAc(b1-3)Gal,-1.19
same,glycan array binding signal (z-score),[13],0.136
same,glycan array binding signal (z-score),[14],0.147
same,glycan array binding signal (z-score),[15],0.119
same,glycan array binding signal (z-score),Gal(b1-3)GlcNAc,-0.009
same,glycan array binding signal (z-score),[16],-0.262
same,glycan array binding signal (z-score),[17],-0.499
same,glycan array binding signal (z-score),Gal(b1-3)GlcNAc(b1-2)Man,0.695
same,glycan array binding signal (z-score),[18],0.989
same,glycan array binding signal (z-score),[19],0.333
same,glycan array binding signal (z-score),[20],-0.649
same,glycan array binding signal (z-score),[21],-0.195
same,glycan array binding signal (z-score),[22],0.63
same,glycan array binding signal (z-score),[23],-1.41
same,glycan array binding signal (z-score),[24],-1.64
same,glycan array binding signal (z-score),[25],-0.446

# A second format for some results above.
binder | measurement | setting | value
ArathEULS3 TAP (Arabidopsis thaliana) (protein) IDENLYFQGGSMDEKTTGWRGGHVVEGLAGELEQLRARLEHHPQGQREPGGGGSLEITSLYKKAGFMEHHHQHHRHHQRDDGEDDRQSFGVPPPHVDAPPQPHGLYQSQPHFDPYAPTPQAPAPYRSETQFEPHAPPPYRSEPYFETPAPPPSFGHVSHVGHQSPNESYPPEHHRYGGYQQPSNSLLESHGDHSGVTHVAHHSSNQPQSSSGVYHKPDENRLPDNLAGLAGRATVKVYSKAEPNYNLTIRDGKVILAPADPSDEAQHWYKDEKYSTKVKDADGHPCFALVNKATGEAMKHSVGATHPVHLIRYVPDKLDESVLWTESKDFGDGYRTIRMVNNTRLNVDAYHGDSKSGGVRDGTTIVLWDWNKGDNQLWKIFPF | glycan array binding signal (z-score) | [2] | 0.075
same | glycan array binding signal (z-score) | [3] | 0.809
same | glycan array binding signal (z-score) | [4] | 0.057
